Where a name gives a salt, the structure may show the parent alone. This is one part of the list. Repeats are few or missing, and single values can be far off.
Assays:
Assay in all cases: reduction in cell viability relative to untreated/vehicle; higher = more growth inhibition
Conditions in all cases: 200 nM; 72 h
[1] = system: M229P (parental melanoma line)
[2] = system: M229R (matched melanoma line resistant to BRAF inhibitors)
[3] = system: M238P (parental melanoma line)
[4] = system: M238R (matched melanoma line resistant to BRAF inhibitors)
[5] = system: M249P (parental melanoma line)
[6] = system: M249R (matched melanoma line resistant to BRAF inhibitors)
[7] = system: UACC62P (parental melanoma line)
[8] = system: UACC62R (matched melanoma line resistant to BRAF inhibitors)

Measured: reduction in cell viability

CC[C@H](CO)Nc1nc(NCc2ccccc2)c2ncn(C(C)C)c2n1 [Seliciclib]
< 0%: [1] | [2] | [3] | [4] | [5] | [6] | [7] | [8]

CS(=O)(=O)CCNCc1ccc(-c2ccc3ncnc(Nc4ccc(OCc5cccc(F)c5)c(Cl)c4)c3c2)o1 [Lapatinib]
< 0%: [1] | [2] | [3] | [4] | [5] | [6] | [7] | [8]

O=C(Nc1ccc(F)c(C(F)(F)F)c1)Nc1nnc(-c2ccncc2)s1
< 0%: [1] | [2] | [3] | [4] | [5] | [6] | [7] | [8]

CC=CC1=C(C(=O)O)N2C(=O)[C@@H](NC(=O)[C@H](N)c3ccc(O)cc3)[C@H]2SC1 [Cefprozil monohydrate]
< 0%: [1] | [2] | [3] | [4] | [5] | [6] | [8]
12%: [7]

CCCCOc1c(C(=O)c2c(F)cc(C)cc2F)c[nH]c2nncc1-2
< 0%: [1] | [2] | [3] | [4] | [5] | [6] | [7] | [8]

Nc1ncnc2ccccc12 [4-Quinazolinamine]
< 0%: [1] | [2] | [3] | [4] | [5] | [6] | [7] | [8]

Nc1cccc2c1CN(C1CCC(=O)NC1=O)C2=O (stereo not given) [Lenalidomide (CC-5013)]
< 0%: [1] | [2] | [3] | [4] | [5] | [6] | [7] | [8]

C/C=C1\[C@H]2C=C(C)C[C@]1(N)c1ccc(=O)[nH]c1C2 [Huperizine A]
< 0%: [1] | [2] | [3] | [4] | [5] | [6] | [7] | [8]

N/C(=N\C(=O)c1nc(Cl)c(N)nc1N)NCc1ccccc1 [Benzamil]
< 0%: [1] | [2] | [3] | [4] | [5] | [6] | [7] | [8]

CC(C)(C)c1nc2c3cc[nH]c(=O)c3c3cc(F)ccc3c2[nH]1 [Merck 5]
2.9%: [5]
12.8%: [7]
< 0%: [1] | [2] | [3] | [4] | [6] | [8]

Cc1ccc(NC(=O)c2ccc(CN3CC[C@H](N(C)C)C3)c(C(F)(F)F)c2)cc1Nc1nccc(-c2cncnc2)n1 [Bafetinib]
15.1%: [3]
< 0%: [1] | [2] | [4] | [6] | [8]
2.98%: [5]
23.4%: [7]

CC(C)[C@H]1CC[C@H](C(=O)N[C@H](Cc2ccccc2)C(=O)O)CC1 [Nateglinide]
< 0%: [1] | [2] | [3] | [4] | [5] | [6] | [7] | [8]

Cc1ccc(/C=N/NC(=O)c2ccccc2Oc2ccccc2)o1
< 0%: [1] | [2] | [3] | [4] | [5] | [6] | [7] | [8]

Nc1nc(N)c2nc(-c3cccc(O)c3)c(-c3cccc(O)c3)nc2n1
14%: [7]
< 0%: [1] | [2] | [3] | [4] | [5] | [8]
2.29%: [6]

C[C@@H](O)[C@H]1C(=O)N2C(C(=O)O)=C(S[C@@H]3CN[C@H](C(=O)N(C)C)C3)[C@H](C)[C@H]12 [Meropenem]
< 0%: [1] | [2] | [3] | [4] | [5] | [6] | [7] | [8]

COc1cc2c(cc1OC)CC(=O)N(CCCN(C)C[C@H]1Cc3cc(OC)c(OC)cc31)CC2 [Ivabradine hydrochloride]
< 0%: [1] | [2] | [3] | [4] | [5] | [6] | [7] | [8]

Fc1ccc(Cl)cc1-c1nc(Nc2ccncc2)c2nccnc2n1
1.83%: [7]
< 0%: [1] | [2] | [3] | [4] | [5] | [6] | [8]

O=C(N[C@@H](c1ccccc1)[C@@H]1CCCCN1)c1cccc(C(F)(F)F)c1Cl
< 0%: [1] | [2] | [3] | [4] | [5] | [6] | [7] | [8]

Cn1c(Nc2ccc(C(F)(F)F)cc2)nc2cc(Oc3ccnc(-c4ncc(C(F)(F)F)[nH]4)c3)ccc21
< 0%: [2]
54.5%: [5]
57.2%: [6]
45.1%: [3]
48%: [8]
9.6%: [4]
78%: [7]
39.8%: [1]

CC(=O)SCC(Cc1ccccc1)C(=O)NCC(=O)OCc1ccccc1 (stereo not given) [Racecadotril]
< 0%: [1] | [2] | [3] | [4] | [5] | [6] | [7] | [8]

OCCN1CCN(CCCN2c3ccccc3Sc3ccc(C(F)(F)F)cc32)CC1 [Fluphenazine hydrochloride]
< 0%: [1] | [2] | [3] | [4] | [5] | [6] | [7] | [8]

Nc1cccc2c1C(=O)N(C1CCC(=O)NC1=O)C2=O (stereo not given) [Pomalidomide]
12.9%: [2]
< 0%: [1] | [3] | [4] | [5] | [6] | [7] | [8]

CN(c1nccc(=O)[nH]1)C1CCN(c2nc3ccccc3n2Cc2ccc(F)cc2)CC1 [Mizolastine]
< 0%: [1] | [2] | [3] | [4] | [5] | [6] | [7] | [8]

Fc1ccc([C@@H]2CCNC[C@H]2COc2ccc3c(c2)OCO3)cc1 [Paroxetine]
< 0%: [1] | [2] | [3] | [4] | [5] | [6] | [7] | [8]

C[C@@H](NC(=O)c1ncnc(N)c1Cl)c1ncc(C(=O)Nc2cc(C(F)(F)F)c(Cl)cn2)s1
< 0%: [1] | [2] | [3] | [4] | [5] | [6] | [8]
8.02%: [7]

OCCN(CCO)c1nc(N2CCCCC2)c2nc(N(CCO)CCO)nc(N3CCCCC3)c2n1 [Dipyridamole]
< 0%: [1] | [2] | [3] | [4] | [5] | [6] | [7] | [8]

O=C(Nc1ccccc1)Nc1ccc(-c2ccc(C(=O)[C@@H]3CCC[C@H]3C(=O)O)cc2)cc1
< 0%: [1] | [2] | [3] | [4] | [5] | [8]
0.21%: [7]
3.64%: [6]

Cn1cc(-c2ccc3ncc(Cc4ccc5ncccc5c4)n3n2)cn1
< 0%: [1] | [2] | [3] | [4] | [5] | [6] | [8]
12.6%: [7]

O=c1ccn([C@@H]2O[C@H](CO)[C@@H](O)[C@@H]2F)c(=O)[nH]1 [1-(2 -Deoxy-2 -fluoro-b-D-arabinofuranosyl)uracil]
< 0%: [1] | [2] | [3] | [4] | [5] | [6] | [7] | [8]

Cc1nc(N)ncc1-c1nc(N2CCOCC2)c2sc(C(C)(C)O)cc2n1
0.99%: [1]
30.8%: [3]
29.5%: [4]
< 0%: [5] | [8]
4.89%: [2]
1.99%: [6]
25%: [7]

C=C(c1ccc(C(=O)O)cc1)c1cc2c(cc1C)C(C)(C)CCC2(C)C [Bexarotene]
< 0%: [1] | [2] | [3] | [4] | [5] | [6] | [7] | [8]

In the list so far, 2 contain a furan ring, fused or not:
CS(=O)(=O)CCNCc1ccc(-c2ccc3ncnc(Nc4ccc(OCc5cccc(F)c5)c(Cl)c4)c3c2)o1 [Lapatinib]
< 0%: [1] | [2] | [3] | [4] | [5] | [6] | [7] | [8]

Cc1ccc(/C=N/NC(=O)c2ccccc2Oc2ccccc2)o1
< 0%: [1] | [2] | [3] | [4] | [5] | [6] | [7] | [8]

Next part

CC(=O)O[C@]1(C(C)=O)CC[C@H]2[C@@H]3C=C(Cl)C4=CC(=O)[C@@H]5C[C@@H]5[C@]4(C)[C@H]3CC[C@@]21C [Cyproterone acetate]
7.84%: [7]
< 0%: [1] | [2] | [3] | [4] | [5] | [6] | [8]

CC(C)=CCC/C(C)=C/CC/C(C)=C/CC/C(C)=C/CC/C(C)=C/CC/C(C)=C/CC/C(C)=C/CC/C(C)=C/CC/C(C)=C/CO [Solanesol]
2.56%: [7]
< 0%: [1] | [2] | [3] | [4] | [5] | [6] | [8]

CN(CCOc1ccc(CC2SC(=O)NC2=O)cc1)c1ccccn1 (stereo not given) [Rosiglitazone]
< 0%: [1] | [2] | [3] | [4] | [5] | [6] | [7] | [8]

CN[C@H]1CN(c2ccc3c(=O)c(C(=O)O)cn(-c4nccs4)c3n2)C[C@@H]1OC [Vosaroxin]
21.2%: [8]
< 0%: [1] | [2] | [3] | [4] | [5] | [6] | [7]

C[C@]12CC[C@@H]3c4ccc(O)cc4CC[C@H]3[C@@H]1C[C@@H](O)[C@@H]2O [Estriol]
< 0%: [1] | [2] | [3] | [4] | [5] | [6] | [7] | [8]

Cc1ccc(-c2cc(C(F)(F)F)nn2-c2ccc(S(N)(=O)=O)cc2)cc1 [Celecoxib]
< 0%: [1] | [2] | [3] | [4] | [5] | [6] | [7] | [8]

CN1CCN(C2=Nc3cc(Cl)ccc3Nc3ccccc32)CC1 [Clozapine]
< 0%: [1] | [2] | [3] | [4] | [5] | [6] | [7] | [8]

Quoted at random: 2 entries already listed, in no set order.
C[C@]12CC[C@@H]3c4ccc(O)cc4CC[C@H]3[C@@H]1C[C@@H](O)[C@@H]2O [Estriol]
< 0%: [1] | [2] | [3] | [4] | [5] | [6] | [7] | [8]

CN(CCOc1ccc(CC2SC(=O)NC2=O)cc1)c1ccccn1 (stereo not given) [Rosiglitazone]
< 0%: [1] | [2] | [3] | [4] | [5] | [6] | [7] | [8]

Next part

O=C(O)c1ccc(O)c2ncc(N3CCOCC3)cc12
< 0%: [1] | [2] | [3] | [4] | [5] | [6] | [7] | [8]

CC[C@H](C)[C@H](N)C1=N[C@H](C(=O)N[C@@H](CC(C)C)C(=O)N[C@H](CCC(=O)[O-])C(=O)N[C@H](C(=O)N[C@H]2CCCCNC(=O)[C@H](CC(N)=O)NC(=O)[C@@H](CC(=O)[O-])NC(=O)[C@H](Cc3cnc[nH]3)NC(=O)[C@@H](Cc3ccccc3)NC(=O)[C@H]([C@@H](C)CC)NC(=O)[C@@H](CCCN)NC2=O)[C@@H](C)CC)CS1.[Zn+2] [Bacitracin Zinc]
< 0%: [1] | [2] | [3] | [4] | [5] | [6] | [7] | [8]

Source: the supplement of paper PMC9015667
